Measured values from PubChem BioAssay AID624297 (National Center for Advancing Translational Sciences (NCATS), 2012).
Screen size: about 340,000 compounds; about 6,200 (1.8%) were called active. The shares of active, inactive and inconclusive entries below differ from those in the screen. Calls follow the shape of the dose curve; as a rule, active = well fitted activation curve with a large enough effect; inconclusive = small, poorly fitted or top-dose-only effect; inactive = no such curve, though single readings can be large or run the other way. Potencies beside an inconclusive call are fits to weak or partial responses and may not hold up.

assay: A quantitative high throughput screen for small molecules that induce DNA re-replication in SW480 colon adenocarcinoma cells.; also: nearly all actives have a fitted effect of over 55% in size; as to re-replication activation: % of control where 0% means no effect; conditions: Hoechst DNA content imaging, 48 h; re-replication activation: at 46.1 µM (top of the series) unless noted
Procedure, shortened: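 Readout is total intensity of Hoechst-stained nuclei, excited at 405 nm and collected at 500-530 nm. Compound treatment lasted 48 hr at 37 C in 5% CO2 before staining.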
Potency is read from the fitted curve at half-maximal effect.

SMILES	Potency	re-replication activation
Cc1ccc(NC(=O)COc2ccccc2)c(NC(=O)c2ccccc2C)c1	inconclusive: 10.3 µM [activator, single point]	
CN1CCCN(C(=O)c2cccc(Br)c2)CC1	inconclusive: 4.61 µM [activator, partial curve, poor fit]	
CCOc1ccc(NS(=O)(=O)c2ccc(C(=O)NCc3ccncc3)cc2)cc1	inactive	
CC(=O)N1CCN(C(=O)CC2OC(=O)c3ccccc32)CC1 (centres undefined)	inconclusive: 23.1 µM [activator, single point]	
CCOC(=O)C(C)NC(=O)CCc1nnc2ccc(N3CCCCC3)nn12 (centres undefined)	inconclusive: 0.1 µM [activator, full curve, poor fit]	
NC(CO)c1cn([C@@H](CCC(=O)O)C(=O)N2CCNCC2)nn1 (some centres undefined)	inconclusive: 4.61 µM [activator, partial curve, poor fit]	
Cc1cc(Nc2ccccc2)n2nc(C)c(-c3ccccc3)c2n1	inconclusive: 29.1 µM [activator, single point]	
CCc1ccn2cc(-c3cc(-c4ccccc4)no3)nc2c1	inconclusive: 32.6 µM [activator, single point]	
CN(C)CCNC(=O)/C(=C/c1ccc(-c2ccc(Cl)cc2Cl)o1)NC(=O)c1ccccc1	inconclusive: 23.1 µM [activator, partial curve, poor fit]	
CCOC(=O)CSc1cccc2cccnc12	active: 6.51 µM	
c1ccc(Oc2nc(-c3ccccn3)nc3ccccc23)cc1	active: 20.6 µM	
NC(=O)COC(=O)c1ccc(Cl)c(S(=O)(=O)N2CCCCCC2)c1	inconclusive: 12.6 µM [activator, single point]	
COc1cccc(N2CCN(c3nc(C)cc(C)c3C#N)CC2)c1	inactive	
Cc1ccccc1/C=C\c1nc2ccccc2c(=O)[nH]1	inconclusive: 20.6 µM [activator, partial curve, poor fit]	
O=C(NCCCn1ccnc1)c1ccc(NS(=O)(=O)c2cccc([N+](=O)[O-])c2)cc1	inactive	
Cc1cc(NC(=O)/C(C#N)=C/c2ccc(-c3ccc(SC(F)F)cc3)o2)n(-c2ccccc2)n1	inconclusive: 18.4 µM [activator, partial curve, poor fit]	
CCn1ccnc1C(O)(c1ccccc1)c1ccccc1	inconclusive: 14.6 µM [activator, single point]	
CCOC(=O)c1c(NC(=O)CSc2nnc(-c3c[nH]c4ccccc34)n2CCOC)sc2c1CCCC2	inconclusive: 8.2 µM [activator, partial curve, poor fit]	
Cc1ccc(S(=O)(=O)/N=C(\N)Nc2nc(C)c3ccccc3n2)cc1	inactive	
Cc1ccc(C)n1-c1ccc(-c2ccnc(N)n2)cc1	inconclusive: 29.1 µM [activator, single point]	
O=C(Nc1ccc(Nc2ccncc2)cc1)c1ccc(Nc2ccnc3ccc([N+](=O)[O-])cc23)cc1[N+](=O)[O-]	inactive	
Cc1ccc(S(=O)(=O)NCCOc2cc(C)ccc2C)cc1	inconclusive: 1.64 µM [activator, partial curve]	
COc1cc(/C=C/C(=O)OCC(=O)c2ccc(S(=O)(=O)N3CCCCC3)cc2)cc(OC)c1OC	inconclusive: 7.31 µM [activator, partial curve, poor fit]	

SMILES	Potency	re-replication activation
COc1ccccc1/C=C/C(=O)OCC(=O)NCc1ccc2c(c1)OCO2	inactive	
C/C=C(/C)C(=O)OC1Cc2c(ccc3ccc(=O)oc23)OC1(C)C (centres undefined)	inconclusive: 8.2 µM [activator, partial curve]	
CN(C(=O)CSc1ncnc2ccccc12)C1CCCCC1	inactive	
COC(=O)C(CO)NC(=O)C1CCCN1C(=O)CNC(=O)OCc1ccccc1 (centres undefined)	inactive	
Cc1c(Cl)c([N+](=O)[O-])nn1CC(=O)N1CCN(C23CC4CC(CC(C4)C2)C3)CC1	inconclusive: 11.6 µM [activator, partial curve, poor fit]	
CSCCC(NS(=O)(=O)c1ccc2ccccc2c1)C(=O)OCC(=O)c1ccc(C(C)C)cc1 (centres undefined)	inconclusive: 29.1 µM [activator, partial curve, poor fit]	
Cc1cc(NC(=O)CCC(=O)N(CC(=O)NCC2CCCO2)c2ccc(C(C)C)cc2)no1 (centres undefined)	inactive	
COc1ccc(C)cc1NC(=O)CSc1nnc(COc2ccc(C)cc2)n1Cc1ccco1	inconclusive: 6.51 µM [activator, partial curve]	
CCCCOC(=O)c1ccc(NC(=O)c2c(Cl)ccc(Cl)c2OC)cc1	inconclusive: 20.6 µM [activator, partial curve, poor fit]	
N#CC1=C(N)N(c2ccccc2)C(c2ccccc2)C1(C#N)C#N (centres undefined)	inactive	
O=C(Nc1ccccc1F)c1ccc(CN2CCN(c3ccccc3)CC2)cc1	inconclusive: 16.4 µM [activator, single point]	
COCCn1c(=NC(=O)c2sc3ccccc3c2Cl)sc2cc(S(N)(=O)=O)ccc21	inconclusive: 9.2 µM [activator, partial curve, poor fit]	
COc1ccc(CCNC(=O)c2cccn2C)cc1	inactive	
CCOC(=O)c1sc(/N=C/N(C)C)nc1C	inconclusive: 1.03 µM [activator, full curve, poor fit]	
CC(=O)Oc1ccc(C#C/C=C2\c3ccccc3C(=O)N2c2ccccc2)cc1	inconclusive: 16.4 µM [activator, single point]	
Nc1c(-c2ccccc2)c(CSc2nc3ccccc3[nH]2)nn1-c1cccc(Cl)c1	inconclusive: 25.9 µM [activator, single point]	
CCCCN(C(=O)/C=C/c1ccc(OC)cc1)C1CCS(=O)(=O)C1 (centres undefined)	inactive	
COc1ccc(CN2CCN(C(=O)c3cccs3)CC2)cc1	inconclusive: 6.51 µM [activator, single point]	
O=[N+]([O-])c1cccc(S(=O)(=O)c2ccc(NCCO)c([N+](=O)[O-])c2)c1	inconclusive: 25.9 µM [activator, single point]	
CC(C)Cc1nnc(NS(C)(=O)=O)s1	inactive	
CCCCNC(=O)CC1N=C2c3ccccc3N=C(SCC(=O)Nc3ccccc3OC)N2C1=O (centres undefined)	inconclusive: 29.1 µM [activator, single point]	
O=C(NCc1ccncc1)c1ccc(OCc2ccccc2)cc1	inactive	
CC(=O)N(c1ccccc1)c1nnc(-c2cnc(C)cn2)s1	inactive	

SMILES	Potency	re-replication activation
N#Cc1c(SCC(=O)Nc2nc3ccccc3s2)sc2c(O)cc(=O)[nH]c12	active: 18.4 µM	
COc1ccc(/C=N\NC(=O)C2C(=O)NCC2c2ccccc2)cc1O (centres undefined)	inconclusive: 23.1 µM [activator, single point]	
CC1CCCC(C)N1CCCNC(=O)CCn1c(=O)c2cccn2c2cccnc21 (centres undefined)	inconclusive: 6.51 µM [activator, single point]	
Cc1ccc(NC(=O)CSc2ncccc2C(=O)Oc2cccc([N+](=O)[O-])c2)cc1Cl	inactive	
CCN(CC)CCNC(=S)Nc1ccc2nc(N3CCN(CC)CC3)cc(C)c2c1	inconclusive: 20.6 µM [activator, partial curve, poor fit]	
CCn1cc(C(=O)NCCCO)c(=O)c2cc(F)c(N3CCN(C)CC3)cc21	inactive	
Cc1ccc(Cl)c(OC(=O)Cn2cnc3c2c(=O)n(C)c(=O)n3C)c1	inactive	
O=C(CC1(O)C(=O)N(Cc2ccccc2)c2ccccc21)c1ccncc1 (centres undefined)		inactive: -1.06% [at 9.22 µM]
O=S(=O)(Nc1cccc(-c2cn3cccnc3n2)c1)c1ccc(-c2ccccc2)cc1	inactive	
COC/C=C/C1=CC2=CC(=O)C(C)(OC(=O)c3cnc4ccccc4n3)C(=O)C2=CN1Cc1ccccc1 (centres undefined)	inconclusive: 20.6 µM [activator, partial curve, poor fit]	
O=C(NNC(=O)c1ccncc1)Nc1ccc(Br)cc1	inactive	
C[C@H](NC(=O)c1[nH]cnc1C(=O)Nc1ccc(CNC(=O)OC(C)(C)C)cc1)C(=O)OC(C)(C)C	inconclusive: 29.1 µM [activator, single point]	
NS(=O)(=O)c1ccc(CCNC(=O)c2ccc([N+](=O)[O-])s2)cc1	inconclusive: 18.4 µM [activator, single point]	
CC(/C=N/NC(=O)c1ccccc1F)=C\c1ccccc1	inconclusive: 29.1 µM [activator, single point]	
O=C1C=CC(=O)N1N(c1ccccc1)c1ccccc1	inconclusive: 16.4 µM [activator, single point]	
CC(C)(CNC(=O)c1cc([N+](=O)[O-])ccc1N1CCC(Cc2ccccc2)CC1)N1CCOCC1	inactive	
CCn1c(=N)c(C(=O)NCCCOC)cc2c(=O)n3cccc(C)c3nc21	inconclusive: 2.24 µM [activator, partial curve, poor fit]	
CC(C)(C)c1ccc(/C=C/C(=O)NCCCN2CCOCC2)cc1	inactive	
Cc1ccc(OCC(=O)Nc2cccc(S(=O)(=O)N3CCCCC3)c2)c([N+](=O)[O-])n1	inactive	
CC(OC(=O)/C=C/c1ccco1)C(=O)Nc1cccc([N+](=O)[O-])c1 (centres undefined)	inconclusive: 18.4 µM [activator, single point]	
Cc1ccnc(NC(=O)C2CCN(S(=O)(=O)c3c(C)c(C)cc(C)c3C)CC2)c1	active: 16.4 µM	
CS(=O)(=O)n1nc(OC(=O)c2cccs2)cc1N	inactive	
COc1cccc(-c2csc(N3CCN(Cc4ccccc4)CC3)n2)c1	inconclusive: 25.9 µM [activator, single point]	

Taken from above:
Entry of `Cc1ccc(NC(=O)CSc2ncccc2C(=O)Oc2cccc([N+](=O)[O-])c2)cc1Cl` under Potency: inactive
Entry of `CC(/C=N/NC(=O)c1ccccc1F)=C\c1ccccc1` under Potency: inconclusive: 29.1 µM [activator, single point]
Entry of `COc1cccc(-c2csc(N3CCN(Cc4ccccc4)CC3)n2)c1` under Potency: inconclusive: 25.9 µM [activator, single point]
Entry of `Cc1ccc(Cl)c(OC(=O)Cn2cnc3c2c(=O)n(C)c(=O)n3C)c1` under Potency: inactive
Entry of `CCN(CC)CCNC(=S)Nc1ccc2nc(N3CCN(CC)CC3)cc(C)c2c1` under Potency: inconclusive: 20.6 µM [activator, partial curve, poor fit]
